Test: general procedure: Fmoc solid-phase peptide synthesis; Fmoc-Rink amide AM resin (0.71 mmol/g, Novabiochem); HOBt/DIC; HOAt/DIC for some couplings
Settings: whole synthesis, UV 214 nm, scale 0.25 mmol

{2-[2-(16-(tetrazol-5-yl)hexadecanoylamino)ethoxy]ethoxy}acetyl-Gln-Arg-Ser-His-Ser-Nle-c[Glu-Hyp-D-Phe-Arg-Trp-Lys]-NH2
final HPLC purity: 100% purity

From US20100016238 (published 2010)
